The supplement of paper PMC10849652
Some of the results follow.

Protein sequences, listed by entry. Tags and fused reporters are not part of them. Lines headed by an entry give the natural chain unless they say otherwise; changes in a name come on top.
UniProt Q9P0N9: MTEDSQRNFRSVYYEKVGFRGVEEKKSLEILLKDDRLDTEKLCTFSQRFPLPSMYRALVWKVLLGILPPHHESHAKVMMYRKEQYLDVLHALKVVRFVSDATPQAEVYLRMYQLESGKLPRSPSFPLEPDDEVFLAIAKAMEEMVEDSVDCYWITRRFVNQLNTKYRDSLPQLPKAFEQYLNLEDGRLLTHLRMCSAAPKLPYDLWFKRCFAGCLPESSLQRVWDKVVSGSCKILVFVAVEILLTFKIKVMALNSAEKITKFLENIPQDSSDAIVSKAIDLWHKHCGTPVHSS
UniProt Q9NQ88: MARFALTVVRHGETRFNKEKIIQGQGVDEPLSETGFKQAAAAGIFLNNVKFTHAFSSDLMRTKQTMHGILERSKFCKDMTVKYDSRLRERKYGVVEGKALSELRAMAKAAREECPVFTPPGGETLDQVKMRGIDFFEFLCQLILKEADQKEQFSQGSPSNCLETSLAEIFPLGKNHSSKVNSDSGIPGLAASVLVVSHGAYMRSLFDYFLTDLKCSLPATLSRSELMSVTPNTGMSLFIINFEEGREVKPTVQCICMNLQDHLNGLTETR
UniProt Q14188: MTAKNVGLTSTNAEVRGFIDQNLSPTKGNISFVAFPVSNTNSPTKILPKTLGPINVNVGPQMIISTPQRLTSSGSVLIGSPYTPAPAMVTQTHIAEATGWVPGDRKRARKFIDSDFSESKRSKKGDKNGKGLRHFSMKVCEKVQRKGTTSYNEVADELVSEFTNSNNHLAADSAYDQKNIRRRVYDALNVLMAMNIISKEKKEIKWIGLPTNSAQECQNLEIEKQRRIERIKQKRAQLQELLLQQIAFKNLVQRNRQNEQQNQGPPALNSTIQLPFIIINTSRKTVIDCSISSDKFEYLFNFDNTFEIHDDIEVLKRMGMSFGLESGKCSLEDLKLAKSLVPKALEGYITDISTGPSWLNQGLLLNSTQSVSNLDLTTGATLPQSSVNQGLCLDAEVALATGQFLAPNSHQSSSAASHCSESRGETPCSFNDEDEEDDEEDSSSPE
UniProt Q9UBB9: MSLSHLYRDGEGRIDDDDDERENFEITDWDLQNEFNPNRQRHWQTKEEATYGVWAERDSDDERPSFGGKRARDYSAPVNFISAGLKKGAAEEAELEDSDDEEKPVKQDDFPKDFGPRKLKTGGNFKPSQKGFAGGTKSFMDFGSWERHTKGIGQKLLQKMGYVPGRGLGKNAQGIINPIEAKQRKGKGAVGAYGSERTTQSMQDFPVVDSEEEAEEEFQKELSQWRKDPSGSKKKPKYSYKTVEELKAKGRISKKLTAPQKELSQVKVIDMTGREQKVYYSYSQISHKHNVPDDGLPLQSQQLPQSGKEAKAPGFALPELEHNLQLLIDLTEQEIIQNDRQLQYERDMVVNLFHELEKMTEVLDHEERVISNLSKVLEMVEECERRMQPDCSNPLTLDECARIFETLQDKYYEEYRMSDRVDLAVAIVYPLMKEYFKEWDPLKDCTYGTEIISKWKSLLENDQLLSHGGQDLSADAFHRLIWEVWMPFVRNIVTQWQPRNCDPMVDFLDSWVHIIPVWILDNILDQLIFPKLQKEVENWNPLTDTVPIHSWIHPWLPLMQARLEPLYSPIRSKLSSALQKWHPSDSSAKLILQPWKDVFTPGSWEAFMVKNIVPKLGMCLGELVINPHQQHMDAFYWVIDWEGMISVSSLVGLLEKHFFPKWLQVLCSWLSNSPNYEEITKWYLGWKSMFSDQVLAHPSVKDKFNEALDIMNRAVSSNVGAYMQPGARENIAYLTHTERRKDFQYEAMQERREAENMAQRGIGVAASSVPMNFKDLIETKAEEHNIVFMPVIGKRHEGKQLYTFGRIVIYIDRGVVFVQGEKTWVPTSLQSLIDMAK
UniProt Q9UGU0: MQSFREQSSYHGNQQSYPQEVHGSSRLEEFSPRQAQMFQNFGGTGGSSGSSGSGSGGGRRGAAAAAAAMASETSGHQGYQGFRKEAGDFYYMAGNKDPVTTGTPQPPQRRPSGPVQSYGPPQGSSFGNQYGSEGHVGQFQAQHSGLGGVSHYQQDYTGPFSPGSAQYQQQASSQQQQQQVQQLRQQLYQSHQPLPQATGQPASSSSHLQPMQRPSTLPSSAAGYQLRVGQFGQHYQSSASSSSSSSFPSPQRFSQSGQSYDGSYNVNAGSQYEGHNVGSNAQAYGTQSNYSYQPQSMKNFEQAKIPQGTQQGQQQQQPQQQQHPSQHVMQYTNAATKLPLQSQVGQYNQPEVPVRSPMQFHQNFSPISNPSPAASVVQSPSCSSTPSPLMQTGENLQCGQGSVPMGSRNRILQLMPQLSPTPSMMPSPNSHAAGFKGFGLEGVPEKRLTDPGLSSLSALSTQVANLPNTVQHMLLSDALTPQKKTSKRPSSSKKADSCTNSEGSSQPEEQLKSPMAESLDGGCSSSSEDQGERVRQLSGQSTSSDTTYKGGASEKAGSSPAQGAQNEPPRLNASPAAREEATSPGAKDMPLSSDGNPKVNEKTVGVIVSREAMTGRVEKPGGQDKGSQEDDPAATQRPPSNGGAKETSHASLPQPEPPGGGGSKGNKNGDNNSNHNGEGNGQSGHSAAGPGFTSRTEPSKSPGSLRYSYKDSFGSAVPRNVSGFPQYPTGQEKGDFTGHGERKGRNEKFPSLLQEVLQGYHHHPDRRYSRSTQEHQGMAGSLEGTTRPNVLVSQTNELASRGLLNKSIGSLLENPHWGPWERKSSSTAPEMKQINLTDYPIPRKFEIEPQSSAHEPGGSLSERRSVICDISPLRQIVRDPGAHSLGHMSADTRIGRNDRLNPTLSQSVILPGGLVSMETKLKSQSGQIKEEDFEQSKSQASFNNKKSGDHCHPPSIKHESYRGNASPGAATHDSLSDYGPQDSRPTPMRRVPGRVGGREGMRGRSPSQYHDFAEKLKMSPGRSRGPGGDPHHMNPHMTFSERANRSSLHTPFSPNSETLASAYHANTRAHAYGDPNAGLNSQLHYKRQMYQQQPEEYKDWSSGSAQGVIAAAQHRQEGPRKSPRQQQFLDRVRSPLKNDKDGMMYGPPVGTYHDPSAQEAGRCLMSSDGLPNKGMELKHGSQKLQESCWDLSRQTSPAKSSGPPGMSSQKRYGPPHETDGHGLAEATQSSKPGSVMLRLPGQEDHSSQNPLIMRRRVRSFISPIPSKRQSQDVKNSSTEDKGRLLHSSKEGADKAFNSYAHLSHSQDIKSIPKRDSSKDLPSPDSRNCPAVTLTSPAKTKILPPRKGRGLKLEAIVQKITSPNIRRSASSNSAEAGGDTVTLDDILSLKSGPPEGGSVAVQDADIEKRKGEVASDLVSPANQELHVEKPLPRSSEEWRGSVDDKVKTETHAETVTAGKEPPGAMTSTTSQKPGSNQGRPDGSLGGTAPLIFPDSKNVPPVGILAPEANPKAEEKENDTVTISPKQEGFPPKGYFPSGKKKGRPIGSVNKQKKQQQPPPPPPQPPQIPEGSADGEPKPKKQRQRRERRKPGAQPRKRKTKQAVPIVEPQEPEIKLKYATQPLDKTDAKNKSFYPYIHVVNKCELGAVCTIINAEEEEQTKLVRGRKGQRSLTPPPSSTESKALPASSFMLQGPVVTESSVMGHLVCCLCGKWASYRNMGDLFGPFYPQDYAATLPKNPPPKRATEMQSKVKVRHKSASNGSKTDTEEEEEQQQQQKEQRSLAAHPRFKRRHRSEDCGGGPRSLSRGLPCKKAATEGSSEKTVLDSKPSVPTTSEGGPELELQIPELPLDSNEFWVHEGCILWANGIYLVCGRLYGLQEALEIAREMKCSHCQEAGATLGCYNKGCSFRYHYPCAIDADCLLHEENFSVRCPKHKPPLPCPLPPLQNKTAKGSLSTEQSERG
UniProt Q3MII6: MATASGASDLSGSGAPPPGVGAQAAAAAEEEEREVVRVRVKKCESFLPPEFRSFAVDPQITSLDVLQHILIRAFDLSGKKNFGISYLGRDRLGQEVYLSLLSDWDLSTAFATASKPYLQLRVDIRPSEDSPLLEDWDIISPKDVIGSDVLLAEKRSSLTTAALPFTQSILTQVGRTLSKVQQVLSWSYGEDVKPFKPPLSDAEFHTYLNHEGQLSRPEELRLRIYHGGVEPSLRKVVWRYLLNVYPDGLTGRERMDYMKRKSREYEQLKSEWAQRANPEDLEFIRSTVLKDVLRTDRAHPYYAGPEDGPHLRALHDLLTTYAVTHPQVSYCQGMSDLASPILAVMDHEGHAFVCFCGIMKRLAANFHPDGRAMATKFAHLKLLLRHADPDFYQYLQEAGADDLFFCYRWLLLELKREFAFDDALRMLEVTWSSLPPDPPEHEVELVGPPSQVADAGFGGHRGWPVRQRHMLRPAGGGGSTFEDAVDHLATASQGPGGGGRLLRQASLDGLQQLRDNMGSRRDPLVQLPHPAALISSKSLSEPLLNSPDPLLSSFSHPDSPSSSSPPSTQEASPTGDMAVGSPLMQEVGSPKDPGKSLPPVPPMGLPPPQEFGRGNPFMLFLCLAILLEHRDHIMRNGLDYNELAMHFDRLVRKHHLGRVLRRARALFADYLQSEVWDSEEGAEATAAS
UniProt Q8TBR7: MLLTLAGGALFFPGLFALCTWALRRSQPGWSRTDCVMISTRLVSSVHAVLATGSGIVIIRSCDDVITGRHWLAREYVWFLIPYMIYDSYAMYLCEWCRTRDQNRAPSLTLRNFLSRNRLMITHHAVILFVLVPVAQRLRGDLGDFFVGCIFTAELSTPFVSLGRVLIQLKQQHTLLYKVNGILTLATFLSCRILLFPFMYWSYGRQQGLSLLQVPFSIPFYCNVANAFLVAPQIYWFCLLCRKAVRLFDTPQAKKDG
UniProt Q9BU02: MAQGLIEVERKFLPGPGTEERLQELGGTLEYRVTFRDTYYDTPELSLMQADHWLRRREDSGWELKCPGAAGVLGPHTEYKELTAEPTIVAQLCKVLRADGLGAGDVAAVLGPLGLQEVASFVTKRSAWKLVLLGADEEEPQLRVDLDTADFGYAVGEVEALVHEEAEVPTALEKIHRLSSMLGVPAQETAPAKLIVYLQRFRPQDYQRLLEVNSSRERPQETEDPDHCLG
UniProt Q9UHQ7: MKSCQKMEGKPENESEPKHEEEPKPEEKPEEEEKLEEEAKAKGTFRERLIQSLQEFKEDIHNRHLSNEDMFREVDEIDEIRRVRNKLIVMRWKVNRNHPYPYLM
UniProt O95455: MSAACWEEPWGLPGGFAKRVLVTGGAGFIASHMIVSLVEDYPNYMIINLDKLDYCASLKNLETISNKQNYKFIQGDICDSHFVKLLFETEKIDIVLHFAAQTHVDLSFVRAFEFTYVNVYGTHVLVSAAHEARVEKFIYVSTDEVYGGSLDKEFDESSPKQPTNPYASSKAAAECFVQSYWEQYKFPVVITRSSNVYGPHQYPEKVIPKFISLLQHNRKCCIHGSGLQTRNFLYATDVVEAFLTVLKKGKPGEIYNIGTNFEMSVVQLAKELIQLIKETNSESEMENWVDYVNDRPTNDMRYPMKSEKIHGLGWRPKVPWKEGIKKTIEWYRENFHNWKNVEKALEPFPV
UniProt Q8IYN2: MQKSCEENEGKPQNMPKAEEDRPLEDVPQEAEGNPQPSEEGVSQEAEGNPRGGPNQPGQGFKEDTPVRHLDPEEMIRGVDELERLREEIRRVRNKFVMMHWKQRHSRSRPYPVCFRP
UniProt Q9NUW8, whole entry, looked up: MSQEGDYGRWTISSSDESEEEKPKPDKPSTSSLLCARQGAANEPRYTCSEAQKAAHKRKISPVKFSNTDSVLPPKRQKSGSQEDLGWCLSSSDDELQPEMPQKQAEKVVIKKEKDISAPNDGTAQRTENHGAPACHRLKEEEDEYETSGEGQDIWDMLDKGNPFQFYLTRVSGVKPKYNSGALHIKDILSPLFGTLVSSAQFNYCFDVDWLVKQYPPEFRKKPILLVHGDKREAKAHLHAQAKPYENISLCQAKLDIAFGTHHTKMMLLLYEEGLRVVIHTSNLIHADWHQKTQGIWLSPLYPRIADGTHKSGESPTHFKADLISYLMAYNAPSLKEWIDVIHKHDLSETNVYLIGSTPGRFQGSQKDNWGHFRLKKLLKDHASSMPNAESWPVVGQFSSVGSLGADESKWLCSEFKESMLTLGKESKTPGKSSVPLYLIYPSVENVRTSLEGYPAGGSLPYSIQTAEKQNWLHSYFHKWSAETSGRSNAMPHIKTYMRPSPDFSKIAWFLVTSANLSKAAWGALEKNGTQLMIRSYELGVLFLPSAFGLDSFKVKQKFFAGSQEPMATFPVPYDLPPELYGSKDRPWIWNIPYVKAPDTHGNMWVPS
UniProt Q7L2K0: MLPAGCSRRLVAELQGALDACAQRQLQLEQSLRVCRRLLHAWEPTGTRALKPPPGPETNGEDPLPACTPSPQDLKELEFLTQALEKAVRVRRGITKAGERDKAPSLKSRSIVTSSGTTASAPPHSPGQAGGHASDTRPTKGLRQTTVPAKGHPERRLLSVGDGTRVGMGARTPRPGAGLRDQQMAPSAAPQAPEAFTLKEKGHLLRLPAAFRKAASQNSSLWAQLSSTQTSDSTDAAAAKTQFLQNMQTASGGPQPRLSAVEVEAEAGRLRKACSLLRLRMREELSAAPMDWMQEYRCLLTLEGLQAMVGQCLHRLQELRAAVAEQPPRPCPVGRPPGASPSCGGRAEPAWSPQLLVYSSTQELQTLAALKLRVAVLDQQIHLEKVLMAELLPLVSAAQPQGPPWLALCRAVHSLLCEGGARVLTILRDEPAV

Columns and labels:
Assay in all cases: log2 fold change, soluble protein after heating vs DMSO (PISA); higher = thermal stabilisation; K562 cells, 10 uM, 30 min; active = over 0.2 and 3.5 SD of the protein, either way, in both replicates (recomputed)
filanesib = compound: CON(C)C(=O)N1N=C(c2cc(F)ccc2F)S[C@@]1(CCCN)c1ccccc1 [filanesib]
Summary of the method: (§1)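 For each measurement, 10 μM compound was applied for 30 min to K562 cells at 2×10^6 cells/mL. Aliquots were heated for 3 min across 48°C-58°C, pooled, and extracted in PBS with 0.5% NP-40 at 4°C; the supernatant after 21,000xg for 90 min was soluble protein. This was quantified by TMTpro 16plex LC-MS/MS with channel sums equalised, and thermal stability was reported relative to control samples from duplicates, on a log2 fold-change scale.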

[1] = compound: COc1cc2nc(-c3cc(F)ccc3O)nc(N[C@@H]3CNC[C@H]3C(C)(C)O)c2cc1OC
Summary of the method: as §1

lapatinib = compound: CS(=O)(=O)CCNCc1ccc(-c2ccc3ncnc(Nc4ccc(OCc5cccc(F)c5)c(Cl)c4)c3c2)o1 [lapatinib]
Summary of the method: as §1

[2] = compound: CS(=O)(=O)c1ccc(-c2cnc(N)c(C(=O)Nc3ccccc3)n2)cc1
Summary of the method: as §1

[3] = compound: C[C@@H]1COCCN1C2=NC(=NC(=C2)C3(CC3)S(=O)(=O)C)C4=C5C=CNC5=CC=C4
Summary of the method: as §1

pictilisib = compound: CS(=O)(=O)N1CCN(Cc2cc3nc(-c4cccc5[nH]ncc45)nc(N4CCOCC4)c3s2)CC1 [pictilisib]
Summary of the method: as §1

gandotinib = compound: Cc1cc(Nc2cc(CN3CCOCC3)c3nc(C)c(Cc4ccc(Cl)cc4F)n3n2)n[nH]1 [gandotinib]
Summary of the method: as §1

zotarolimus = compound: CO[C@H]1C[C@@H]2CC[C@@H](C)[C@@](O)(O2)C(=O)C(=O)N2CCCC[C@H]2C(=O)O[C@H]([C@H](C)C[C@@H]2CC[C@H](n3cnnn3)[C@H](OC)C2)CC(=O)[C@H](C)/C=C(\C)[C@@H](O)[C@@H](OC)C(=O)[C@H](C)C[C@H](C)/C=C/C=C/C=C/1C [zotarolimus]
Summary of the method: as §1

alisertib = compound: COc1cc(Nc2ncc3c(n2)-c2ccc(Cl)cc2C(c2c(F)cccc2OC)=NC3)ccc1C(=O)O [alisertib]
Summary of the method: as §1

[4] = compound: COc1cccc2cc(-c3nc([C@H]4CC[C@H](C(=O)O)CC4)n4ncnc(N)c34)[nH]c12
Summary of the method: as §1

[5] = compound: C[C@H](C1=CC=C(C=C1)C(=O)NC2=C3C=CNC3=NC=C2)N
Summary of the method: as §1

tozasertib = compound: Cc1cc(Nc2cc(N3CCN(C)CC3)nc(Sc3ccc(NC(=O)C4CC4)cc3)n2)n[nH]1 [tozasertib]
Summary of the method: as §1

[6] = compound: COC1=CC=C(C=C1)CN2C=CC3=C2C=C(C=C3)C(=O)NO
Summary of the method: as §1

gefitinib = compound: COc1cc2ncnc(Nc3ccc(F)c(Cl)c3)c2cc1OCCCN1CCOCC1 [gefitinib]
Summary of the method: as §1

crizotinib = compound: C[C@@H](Oc1cc(-c2cnn(C3CCNCC3)c2)cnc1N)c1c(Cl)ccc(F)c1Cl [crizotinib]
Summary of the method: as §1

doramapimod = compound: Cc1ccc(-n2nc(C(C)(C)C)cc2NC(=O)Nc2ccc(OCCN3CCOCC3)c3ccccc23)cc1 [doramapimod]
Summary of the method: as §1

ispinesib = compound: Cc1ccc(C(=O)N(CCCN)[C@@H](c2nc3cc(Cl)ccc3c(=O)n2Cc2ccccc2)C(C)C)cc1 [ispinesib]
Summary of the method: as §1

idasanutlin = compound: COc1cc(C(=O)O)ccc1NC(=O)[C@@H]1N[C@@H](CC(C)(C)C)[C@](C#N)(c2ccc(Cl)cc2F)[C@H]1c1cccc(Cl)c1F [idasanutlin]
Summary of the method: as §1

duvelisib = compound: C[C@H](Nc1ncnc2nc[nH]c12)c1cc2cccc(Cl)c2c(=O)n1-c1ccccc1 [duvelisib]
Summary of the method: as §1

[7] = compound: Cc1cc(SCc2sc(-c3ccc(C(F)(F)F)cc3)nc2C)ccc1OCC(=O)O
Summary of the method: as §1

Measured: log2 fold change

TBC1D7 (UniProt Q9P0N9)
inactive: filanesib 0.182 | [1] 0.244 | lapatinib -0.157 | [2] 0.016 | [3] -0.182

TIGAR (UniProt Q9NQ88)
inactive: pictilisib 0.062 | gandotinib 0.202

TFDP2 (UniProt Q14188)
inactive: filanesib -0.043 | zotarolimus 0.158 | alisertib -0.004 | [4] 0.188 | [2] -0.067 | [3] -0.054 | [5] 0.087 | tozasertib -0.022

Two records picked at random from the list so far, as already listed:
TBC1D7 (UniProt Q9P0N9)
inactive: filanesib 0.182 | [1] 0.244 | lapatinib -0.157 | [2] 0.016 | [3] -0.182

TIGAR (UniProt Q9NQ88)
inactive: pictilisib 0.062 | gandotinib 0.202

Further entries follow:

TFAP4 (UniProt Q01664)
inactive: [6] 0.015 | zotarolimus 0.037 | [1] 0.048 | gefitinib 0.01 | lapatinib -0.054 | pictilisib 0.008 | crizotinib -0.056 | [5] 0.329 | gandotinib -0.006 | tozasertib 0.006 | doramapimod -0.095 | ispinesib -0.111

TBC1D2 (UniProt Q9BYX2)
inactive: idasanutlin 0.016 | alisertib -0.053 | [4] -0.211 | pictilisib -0.097 | [3] 0.064 | gandotinib -0.04

TCOF1 isoform 3 (UniProt Q13428)
inactive: filanesib -0.152 | pictilisib 0.188 | [2] -0.103 | [3] 0.542 | gandotinib -0.166 | ispinesib -0.185

TBX1 isoform 3 (UniProt O43435)
inactive: [6] -0.314 | [1] 0.386 | gefitinib 0.042 | lapatinib -0.09 | crizotinib 0.341 | doramapimod -0.012

TFIP11 (UniProt Q9UBB9)
inactive: zotarolimus -0.113 | [5] 0.126

TCEAL4 isoform 2 (UniProt Q96EI5)
inactive: [6] -0.065 | [1] -0.168 | lapatinib 0.058 | pictilisib -0.168 | crizotinib -0.082 | [3] 0.011 | duvelisib 0.057 | gandotinib 0 | tozasertib -0.045 | [7] -0.004 | doramapimod 0.035 | ispinesib 0.145

TESMIN (UniProt Q9Y4I5)
inactive: gefitinib 0.056

TBCK (UniProt Q8TEA7)
inactive: [6] -0.123 | idasanutlin -0.251 | [1] 0.108 | gefitinib 0.121 | lapatinib -0.171 | pictilisib -0.083 | crizotinib -0.008 | duvelisib -0.083 | gandotinib 0.143 | tozasertib -0.05 | [7] 0.088 | doramapimod -0.078

TBC1D9 (UniProt Q6ZT07)
inactive: duvelisib -0.082 | [7] 0.603

TCF20 (UniProt Q9UGU0)
inactive: zotarolimus -0.067 | pictilisib 0.336 | [3] -0.172 | [5] 0.411 | gandotinib 0.311 | ispinesib -0.471

TBC1D14 (UniProt Q9P2M4)
inactive: filanesib 0.081 | idasanutlin 0.049 | alisertib -0.046 | [1] -0.224 | [4] -0.1 | lapatinib 0.004 | pictilisib 0.125 | [2] -0.52 | [3] 0.141 | gandotinib -0.055 | tozasertib -0.182 | ispinesib 0.122

TK1 (UniProt K7ERV3)
inactive: filanesib 0.005 | zotarolimus -0.034 | idasanutlin -0.075 | alisertib 0.121 | [1] -0.107 | gefitinib 0.026 | [4] 0 | lapatinib -0.107 | pictilisib 0.102 | [2] 0 | [3] 0.021 | [5] 0.182 | gandotinib -0.029 | [7] -0.041 | ispinesib 0.005

TEPSIN (UniProt Q96N21)
inactive: [6] 0.172 | crizotinib -0.223 | doramapimod 0.241

TC2N (UniProt Q8N9U0)
inactive: idasanutlin -0.003 | alisertib 0.012 | gefitinib -0.066 | [4] 0.127 | [7] -0.072 | ispinesib -0.071

TBC1D25 (UniProt Q3MII6)
inactive: zotarolimus -0.116 | [5] -0.115

TLCD3A (UniProt Q8TBR7)
inactive: filanesib -0.079 | idasanutlin -0.101 | [1] -0.064 | lapatinib 0.012 | pictilisib 0.179 | [2] -0.004 | duvelisib -0.019 | gandotinib -0.125 | tozasertib -0.014 | [7] 0.185

TGM2 (UniProt A2A299)
inactive: zotarolimus -0.098 | idasanutlin 0.019 | alisertib 0.202 | [1] 0.098 | [4] -0.312 | lapatinib -0.214 | [5] 0.168 | duvelisib 0.15 | tozasertib -0.088 | [7] 0.001 | ispinesib -0.11

THAP12 (UniProt O43422)
inactive: [6] 0.125 | zotarolimus 0.151 | gefitinib 0.191 | pictilisib 0.061 | crizotinib 0.034 | [5] 0.345 | gandotinib -0.602 | doramapimod 0.172 | ispinesib -0.003

TBC1D17 (UniProt Q9HA65)
inactive: filanesib 0.048 | zotarolimus 0.021 | idasanutlin -0.08 | alisertib 0.067 | gefitinib 0.105 | [4] 0.087 | pictilisib -0.047 | [2] 0.096 | [5] 0.067 | duvelisib -0.004 | gandotinib -0.108 | tozasertib -0.061 | [7] 0.077 | ispinesib 0.037

THTPA (UniProt Q9BU02)
inactive: zotarolimus -0.028 | idasanutlin 0.107 | alisertib -0.19 | [1] 0.117 | [4] 0.087 | lapatinib 0.015 | [5] -0.004 | duvelisib 0.09 | tozasertib 0.048 | [7] -0.105 | ispinesib -0.01

TEX10 (UniProt Q9NXF1)
inactive: filanesib 0.386 | pictilisib -0.194 | [2] -0.135 | gandotinib 0.051

TCEAL9 (UniProt Q9UHQ7)
inactive: filanesib 0.15 | [2] -0.181 | [3] -0.458

TCF3 isoform 2 (UniProt P15923)
inactive: [6] -0.096 | zotarolimus -0.044 | idasanutlin -0.066 | pictilisib 0.077 | crizotinib 0.156 | [5] -0.009 | gandotinib -0.211 | tozasertib 0.007 | doramapimod 0.192 | ispinesib 0.025

TET2 (UniProt Q6N021)
inactive: [6] -0.009 | alisertib 0.21 | gefitinib 0.161 | [4] 0.12 | crizotinib 0.062 | tozasertib -0.05 | doramapimod -0.03

TLE3 (UniProt Q04726)
inactive: zotarolimus -0.211 | [5] -0.042

TGDS (UniProt O95455)
inactive: filanesib 0.09 | zotarolimus 0.093 | idasanutlin -0.238 | alisertib -0.047 | gefitinib 0.009 | [4] 0.133 | pictilisib 0.308 | [2] -0.008 | [5] -0.053 | duvelisib 0.099 | gandotinib -0.155 | tozasertib -0.26 | [7] 0.079

TCEAL8 (UniProt Q8IYN2)
inactive: [6] -0.057 | alisertib -0.143 | gefitinib -0.015 | [4] 0.004 | pictilisib 0.147 | crizotinib 0.075 | gandotinib -0.222 | doramapimod -0.104

TCF4 isoform 3 (UniProt P15884)
inactive: zotarolimus 0.207 | [1] -0.011 | lapatinib -0.066 | pictilisib 0.024 | [5] 0.198 | duvelisib -0.012 | gandotinib -0.016 | tozasertib 0.086 | [7] -0.044

Quoted from the listing (two entries):
TLE3 (UniProt Q04726)
inactive: zotarolimus -0.211 | [5] -0.042

TGDS (UniProt O95455)
inactive: filanesib 0.09 | zotarolimus 0.093 | idasanutlin -0.238 | alisertib -0.047 | gefitinib 0.009 | [4] 0.133 | pictilisib 0.308 | [2] -0.008 | [5] -0.053 | duvelisib 0.099 | gandotinib -0.155 | tozasertib -0.26 | [7] 0.079

(list continues)

TDP1 (UniProt Q9NUW8)
inactive: zotarolimus -0.015 | [5] 0.145

TENM4 (UniProt Q6N022)
inactive: [6] -0.227 | zotarolimus -0.008 | [1] 0.131 | lapatinib -0.014 | pictilisib 0.15 | crizotinib 0.105 | [3] 0.044 | [5] 0.101 | duvelisib 0.07 | gandotinib 0.21 | [7] -0.024 | doramapimod 0

TDRD3 isoform 3 (UniProt Q9H7E2)
inactive: alisertib 0.051 | [1] -0.022 | [4] -0.046 | lapatinib 0.1 | [3] 0.006

TEDC2 (UniProt Q7L2K0)
inactive: idasanutlin 0.062 | duvelisib -0.03 | tozasertib -0.03 | [7] -0.141
